One assay deals with T1, TAF11-TAP (C. albicans) (UniProt Q59SU6).
T1 sequence: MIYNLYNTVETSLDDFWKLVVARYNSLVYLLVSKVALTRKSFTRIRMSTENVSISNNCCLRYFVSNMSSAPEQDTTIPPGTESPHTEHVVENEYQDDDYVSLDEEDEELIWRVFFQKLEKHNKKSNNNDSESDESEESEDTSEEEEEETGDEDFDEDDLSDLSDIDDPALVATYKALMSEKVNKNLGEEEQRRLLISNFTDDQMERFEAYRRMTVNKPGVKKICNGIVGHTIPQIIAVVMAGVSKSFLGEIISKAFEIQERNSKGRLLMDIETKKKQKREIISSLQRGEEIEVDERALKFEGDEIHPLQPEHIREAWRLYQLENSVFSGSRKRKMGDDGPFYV
Kind of assay: affinity purification with mass spectrometry; TBP-TAP and TAF11-TAP affinity purified from C. albicans strains, MudPIT; untagged strain SN87 as control.

Chains of the proteins cited; added tags and fusions are not shown.
UniProt A0A1D8PSN1: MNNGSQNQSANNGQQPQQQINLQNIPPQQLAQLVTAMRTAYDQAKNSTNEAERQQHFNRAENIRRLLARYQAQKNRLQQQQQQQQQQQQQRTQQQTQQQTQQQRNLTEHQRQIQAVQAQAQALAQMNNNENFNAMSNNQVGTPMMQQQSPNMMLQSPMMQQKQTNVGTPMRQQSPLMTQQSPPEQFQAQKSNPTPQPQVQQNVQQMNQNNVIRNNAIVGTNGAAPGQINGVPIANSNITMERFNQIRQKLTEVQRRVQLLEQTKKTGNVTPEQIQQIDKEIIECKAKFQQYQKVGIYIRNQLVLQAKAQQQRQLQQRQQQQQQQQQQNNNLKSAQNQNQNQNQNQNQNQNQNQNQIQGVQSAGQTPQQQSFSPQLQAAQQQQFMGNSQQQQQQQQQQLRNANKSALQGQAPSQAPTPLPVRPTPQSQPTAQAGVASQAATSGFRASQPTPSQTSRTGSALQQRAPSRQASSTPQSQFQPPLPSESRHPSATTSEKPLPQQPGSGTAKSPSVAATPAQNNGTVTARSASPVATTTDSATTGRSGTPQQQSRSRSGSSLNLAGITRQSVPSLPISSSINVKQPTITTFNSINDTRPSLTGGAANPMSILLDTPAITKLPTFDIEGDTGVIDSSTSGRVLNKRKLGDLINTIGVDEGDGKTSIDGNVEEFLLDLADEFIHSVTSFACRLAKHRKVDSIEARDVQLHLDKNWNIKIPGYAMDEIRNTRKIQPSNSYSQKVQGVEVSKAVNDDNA
UniProt A0A1D8PSS1: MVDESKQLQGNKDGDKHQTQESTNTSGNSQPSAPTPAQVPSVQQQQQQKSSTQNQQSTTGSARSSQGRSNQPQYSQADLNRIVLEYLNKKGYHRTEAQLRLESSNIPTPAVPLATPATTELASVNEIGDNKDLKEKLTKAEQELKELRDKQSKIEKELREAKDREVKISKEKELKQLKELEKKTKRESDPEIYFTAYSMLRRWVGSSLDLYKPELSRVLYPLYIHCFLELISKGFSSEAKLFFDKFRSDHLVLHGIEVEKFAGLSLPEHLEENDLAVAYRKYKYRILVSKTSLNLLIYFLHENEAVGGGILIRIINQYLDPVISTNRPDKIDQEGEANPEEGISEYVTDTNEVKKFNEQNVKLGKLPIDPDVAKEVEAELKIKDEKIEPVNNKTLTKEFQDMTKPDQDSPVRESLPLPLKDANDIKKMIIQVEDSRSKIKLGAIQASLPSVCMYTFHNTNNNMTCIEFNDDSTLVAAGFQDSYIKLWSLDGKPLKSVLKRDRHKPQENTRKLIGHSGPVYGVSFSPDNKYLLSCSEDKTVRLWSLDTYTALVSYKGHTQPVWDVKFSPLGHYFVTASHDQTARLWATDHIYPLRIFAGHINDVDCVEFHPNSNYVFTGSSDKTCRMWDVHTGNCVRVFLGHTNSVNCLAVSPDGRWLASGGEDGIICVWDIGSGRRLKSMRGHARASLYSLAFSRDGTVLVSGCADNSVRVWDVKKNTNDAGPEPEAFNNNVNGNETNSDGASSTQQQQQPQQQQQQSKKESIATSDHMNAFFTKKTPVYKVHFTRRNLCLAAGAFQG
UniProt A0A1D8PNT2: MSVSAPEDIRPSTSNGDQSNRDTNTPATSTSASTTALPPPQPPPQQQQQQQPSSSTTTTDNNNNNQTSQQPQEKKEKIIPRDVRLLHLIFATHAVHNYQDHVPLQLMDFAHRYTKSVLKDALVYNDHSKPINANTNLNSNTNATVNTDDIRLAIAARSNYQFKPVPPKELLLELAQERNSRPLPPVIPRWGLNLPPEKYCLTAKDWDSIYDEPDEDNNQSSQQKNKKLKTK

Another assay has as its target T2, TBP-TAP (C. albicans) (UniProt O43133).
T2 sequence: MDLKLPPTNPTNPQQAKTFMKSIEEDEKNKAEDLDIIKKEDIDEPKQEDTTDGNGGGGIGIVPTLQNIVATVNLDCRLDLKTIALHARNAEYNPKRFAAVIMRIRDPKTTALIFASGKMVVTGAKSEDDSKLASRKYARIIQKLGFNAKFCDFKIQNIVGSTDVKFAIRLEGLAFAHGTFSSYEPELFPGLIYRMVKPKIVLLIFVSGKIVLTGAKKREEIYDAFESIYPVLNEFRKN
The description is as above.

The target in assay [1] is 3xFLAG-tagged TAF12L (C. albicans). The assay can be described thus: affinity purification with mass spectrometry; TAF12L-FLAG purified from C. albicans extract on anti-FLAG M2 affinity agarose, eluted, MudPIT; untagged strain SN87 as control.

No constants are given. Whether binding was seen depends on the method and setting. Binding seen in cells or lysates may run through a third protein. A yes stands for co-enrichment or nearness to the bait. Other partners may have been found. For some of these results: A no says only that the protein was not detected with the bait.

The values below come from PMC12969390.

Regarding TAF12L (from UniProt A0A1D8PSN1 1-750), the binding entry in the assay with TAF11-TAP (C. albicans) and with TBP-TAP (C. albicans) was “no binding” throughout. In the case of TAF5 (from UniProt A0A1D8PSS1 1-798), the binding entry in assay [1] is reported as “binds”. For TAF9 (from UniProt A0A1D8PNT2 1-231), the binding entry in assay [1] was “binds”.
